Negatives hold for the conditions tested. At least one verdict was read from the data and is not stated in words by the source. Protein sequences can lack the tags named with them.

We go through two sequences from PMC8651674.

For data set [1], the target named is T1, RNase B (RB), N-glycosylated (UniProt P61823).
T1 sequence (looked up, limits assumed): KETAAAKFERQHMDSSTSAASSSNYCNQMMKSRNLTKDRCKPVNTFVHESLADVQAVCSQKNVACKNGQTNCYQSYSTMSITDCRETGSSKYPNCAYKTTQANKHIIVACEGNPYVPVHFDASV
As to the kind of experiment: bead-based flow cytometry. The note with it: 20 µM protein, negative control; RB: 20 mM Tris-HCl, 120 mM NaCl, 5 mM KCl, 1 mM MgCl2, 1 mM CaCl2, 0.01% Tween-20, RT, 45 min (MST 1 h); fetuin: 20 mM Tris-HCl pH 7.5, 100 mM NaCl, 2 mM MgCl2, 5 mM KCl; commercial protein; label: bead; single-stranded DNA. For orientation: In flow cytometry, cells or beads pass a laser one at a time.

Another data set addresses T2, fetuin (UniProt P12763).
T2 sequence (looked up, limits assumed): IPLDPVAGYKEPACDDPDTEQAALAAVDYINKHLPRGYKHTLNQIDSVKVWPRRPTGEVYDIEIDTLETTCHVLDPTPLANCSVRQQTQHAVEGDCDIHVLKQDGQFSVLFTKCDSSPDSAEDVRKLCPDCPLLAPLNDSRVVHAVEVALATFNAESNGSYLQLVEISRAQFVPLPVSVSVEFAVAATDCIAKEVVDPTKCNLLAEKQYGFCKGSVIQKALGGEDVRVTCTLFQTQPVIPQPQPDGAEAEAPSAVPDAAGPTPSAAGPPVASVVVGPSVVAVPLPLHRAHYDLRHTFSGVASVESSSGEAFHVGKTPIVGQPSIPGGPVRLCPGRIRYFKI
In words: bead-based flow cytometry. The conditions noted are these: 1 µM protein, negative control, RB: 20 mM Tris-HCl, 120 mM NaCl, 5 mM KCl, 1 mM MgCl2, 1 mM CaCl2, 0.01% Tween-20, RT, 45 min (MST 1 h), fetuin: 20 mM Tris-HCl pH 7.5, 100 mM NaCl, 2 mM MgCl2, 5 mM KCl, commercial protein, protein details: Dylight 650 label in bead assays, unlabeled in MST, single-stranded DNA.

On to “AGCAGCACAGAGGTCAGATG [FP (RB forward primer)]”, for which the binding result in data set [1] was “no binding”. On to “CCAGCGAGCCAGCGAC [Fet FP (fetuin forward primer)]”, for which the binding result in the data set with fetuin is recorded as “no binding”.
